# Experimental data reported in paper PMC12431657, “Discovery and mechanistic insights of dibenzoylmethane as a broad spectrum inhibitor of coronavirus” (PLOS Pathogens, 2025).
# Structures can show the parent of a compound that is named as a salt. Where two headings read alike, the source gives them in different places. Hit rate of the full screen: of about 3,300 compounds, about 95 (3%) showed an effect of 50% or more. The list shows a part of the results.
# System: HCoV-229E
# Parameters: species or system Huh-7; HTS, protection from HCoV-229E induced cell death, luminescent cell viability (CellCounting-Lite 2.0), inhibition rate
# Settings: 24 h post infection, 1 h compound pre-incubation, 10 µM, inhibitor
Compound,229E Inhibition rate [%],"229E Inhibition rate (229E Inhibition rate, 24 h) [%]"
CC(C)=CCC/C(C)=C/CC/C(C)=C/CO [Farnesol],16.8,–
O=C(O)CCc1ccccc1O [3-(2-Hydroxyphenyl)propanoic acid],10.1,–
COc1cc(O)c2c(=O)c(O[C@@H]3O[C@H](CO)[C@@H](O)[C@H](O)[C@H]3O)c(-c3ccc(O[C@@H]4O[C@H](CO)[C@@H](O)[C@H](O)[C@H]4O)cc3)oc2c1 [Complanatuside],32.5,–
C[C@H]1[C@H](C)CC[C@]2(C(=O)O)CC[C@]3(C)C(=CC[C@@H]4[C@@]5(C)C[C@@H](O)[C@H](O)C(C)(C)[C@@H]5CC[C@]43C)[C@H]12 [Corosolic acid],5.1,–
C=C(C)[C@H](CC=C(C)C)Cc1c(O)cc(OC)c2c1O[C@H](c1ccc(O)cc1O)CC2=O [Kurarinone],19.7,–
Cc1cc(=O)c2c(O)c3c(cc2o1)OC(C)(C)[C@@H](O[C@@H]1O[C@H](CO)[C@@H](O)[C@H](O)[C@H]1O)C3 [Sec-O-Glucosylhamaudol],0,–
COc1c(O)cc2c(c1O)C(=O)c1c(cc(C)c(O)c1OC)C2=O [Aurantio-obtusin],23.9,–
O=C(/C=C/c1ccc(O)cc1)NCCc1ccc(O)cc1 [N-p-trans-Coumaroyltyramine],26,–
C[N+](C)(C)C[C@H](O)CC(=O)[O-] [L-Carnitine (hydrochloride)],–,8.7
COc1cc(CCC(O)CC(O)CCc2ccc(O)c(OC)c2)ccc1O (stereo not shown) [Octahydrocurcumin],15,–
O=C(/C=C/c1ccc(O)c(O)c1)OC[C@@H](O)CO[C@@H]1O[C@H](CO)[C@@H](O)[C@H](O)[C@H]1O [Regaloside C],52.3,–
O=C(O)c1cc(=O)cc(C(=O)O)o1 [Chelidonic acid],9,–
C[C@@H]1CC[C@]2(C(=O)O)CC[C@]3(C)C(=CC[C@@H]4[C@@]5(C)C[C@@H](O)[C@@H](O)C(C)(C)[C@@H]5CC[C@]43C)[C@@H]2[C@]1(C)O [Euscaphic acid],13.7,–
OC[C@H]1O[C@H](OC[C@H]2O[C@H](O[C@]3(CO)O[C@H](CO)[C@@H](O)[C@@H]3O)[C@H](O)[C@@H](O)[C@@H]2O)[C@H](O)[C@@H](O)[C@H]1O [Raffinose],52.1,–
NC(=O)NC(CC(=O)O)C(=O)O (racemic) [N-Carbamoyl-DL-aspartic acid],10,–
OCCc1ccc(O)c(O)c1 [Hydroxytyrosol],9.4,–
COc1cc2c(cc1O)CC[C@@H]1[C@@H]2CC[C@]2(C)C(=O)CC[C@@H]12 [2-Methoxyestrone],10.1,–
C=C1CC[C@@H]2[C@](C)(CO[C@@H]3O[C@H](CO)[C@@H](O)[C@H](O)[C@H]3O)CCC[C@@]2(C)[C@@H]1CCC1=CCOC1=O [Neoandrographolide],3.5,–
CC(C)(O)CCc1c(O)cc(O)c2c(=O)c(O)c(-c3ccc(O)cc3)oc12 [Noricaritin],14.9,–
O=C(C[C@H]1NCCC[C@@H]1O)Cn1cnc2cc(Br)c(Cl)cc2c1=O (racemic) [Halofuginone (hydrobromide)],–,21.7
COc1cc(C(=O)OCCCCNC(=N)N)cc(OC)c1O [Leonurine (hydrochloride)],–,27.9
Cc1cn([C@@H]2O[C@H](CO)[C@@H](O)[C@H]2O)c(=O)[nH]c1=O [5-Methyluridine],14.9,–
C[C@H](CC[C@@H](O)C(C)(C)O)[C@H]1CC[C@@]2(C)[C@@H]3CC=C4[C@@H](CC[C@H](O[C@@H]5O[C@H](CO[C@@H]6O[C@H](CO)[C@@H](O)[C@H](O)[C@H]6O)[C@@H](O)[C@H](O)[C@H]5O)C4(C)C)[C@]3(C)[C@H](O)C[C@]12C [Mogroside II-A2],10,–
CCC(=O)OC(CC(=O)[O-])C[N+](C)(C)C (stereo not shown) [Propionylcarnitine],45.8,–
CN[C@@H]1[C@@H](O)[C@@H](O[C@@H]2[C@@H](O)[C@H](O[C@H]3OC(CN)=CC[C@H]3N)[C@@H](N)C[C@H]2N)OC[C@]1(C)O [Sisomicin (sulfate)],9.6,–
N[C@@H](CC(=O)O)C(=O)O [Aspartic acid (calcium)],–,8.5
CC[C@H]1CN2CC[C@H]1C[C@@H]2[C@@H](O)c1ccnc2ccc(OC)cc12 [Hydroquinidine],28.4,–
COc1ccc2c(=O)c(-c3ccc(O)cc3)coc2c1 [Isoformononetin],30.1,–

# For reference, two of the compounds above.
Compound,229E Inhibition rate [%],"229E Inhibition rate (229E Inhibition rate, 24 h) [%]"
Cc1cn([C@@H]2O[C@H](CO)[C@@H](O)[C@H]2O)c(=O)[nH]c1=O [5-Methyluridine],14.9,–
C[C@H](CC[C@@H](O)C(C)(C)O)[C@H]1CC[C@@]2(C)[C@@H]3CC=C4[C@@H](CC[C@H](O[C@@H]5O[C@H](CO[C@@H]6O[C@H](CO)[C@@H](O)[C@H](O)[C@H]6O)[C@@H](O)[C@H](O)[C@H]5O)C4(C)C)[C@]3(C)[C@H](O)C[C@]12C [Mogroside II-A2],10,–

# Further results follow:

Compound,229E Inhibition rate [%],"229E Inhibition rate (229E Inhibition rate, 24 h) [%]"
NC[C@H]1O[C@H](O[C@H]2[C@H](O)[C@@H](O[C@H]3O[C@H](CO)[C@@H](O)[C@H](N)[C@H]3O)[C@H](N)C[C@@H]2N)[C@H](O)[C@@H](O)[C@@H]1O [Kanamycin (sulfate)],12.2,–
O=C(/C=C/c1ccc(O)c(O)c1)c1ccc(O)cc1O [Butein],44.9,–
C[C@]12C[C@H](O)[C@H]3[C@@H](CCC4=CC(=O)CC[C@@]43C)[C@@H]1CC[C@@H]2C(=O)CO [Corticosterone],8.7,–
CC(C)=CCc1c(-c2ccc(O)cc2O)oc2c([C@H]3C=C(C)C[C@@H](c4ccc(O)cc4O)[C@@H]3C(=O)c3ccc(O)cc3O)c(O)cc(O)c2c1=O [Kuwanon G],24.6,–
Oc1nc(O)c2nc(O)[nH]c2n1 [Uric acid],6.1,–
O=C(O)Cc1cc(I)c(Oc2cc(I)c(O)c(I)c2)c(I)c1 [Tetrac],10.4,–
c1cc2c(cc1[C@H]1OC[C@H]3[C@@H]1CO[C@@H]3c1ccc3c(c1)OCO3)OCO2 [Sesamin],15.4,–
"O=C(O)c1cc(=O)[nH]c(=O)[nH]1 [2,6-Dioxo-1,2,3,6-tetrahydropyrimidine-4-carboxylic acid hyd] [2,6-Dioxo-1,2,3,6-tetrahydropyrimidine-4-carboxylic acid hydrate]",–,18
COc1cc(C=O)ccc1O[C@@H]1O[C@H](CO)[C@@H](O)[C@H](O)[C@H]1O [Glucovanillin],19.8,–
C=C[C@@]1(C)CC(=O)[C@]2(O)[C@@]3(C)[C@@H](O)CCC(C)(C)[C@@H]3[C@H](O)[C@H](OC(C)=O)[C@@]2(C)O1 [Forskolin],5.3,–
COc1ccc(C(=O)O)cc1O [Isovanillic acid],0,–
CN1Cc2c(ccc3c2OCO3)-c2ccc3cc4c(cc3c21)OCO4 [Dihydrosanguinarine],21.9,–
CO[C@H]1[C@@H](O)[C@H](O[C@@H]2[C@@H](C)O[C@@H](O[C@H]3CC[C@@]4(C)[C@@H](CC[C@@]56O[C@@]57CC[C@@H](C(C)=O)[C@@]7(C)[C@H](OC(C)=O)[C@@H](OC(=O)c5ccccc5)[C@H]46)C3)C[C@H]2OC)O[C@H](C)[C@H]1O [Tenacissoside I],13.8,–
C=C1CC[C@@H]2[C@](C)(CO)[C@H](O)CC[C@@]2(C)[C@@H]1CCC1=CCOC1=O [14-Deoxyandrographolide],–,23.1
CC(CC(=O)C[C@@H](C)[C@H]1CC(=O)[C@@]2(C)C3=C(C(=O)C[C@]12C)[C@@]1(C)CC[C@H](O)C(C)(C)[C@@H]1C[C@@H]3O)C(=O)O (stereo partly shown) [Ganoderic acid B],7.7,–
CCCCCc1cc(=O)c2ccccc2n1C [1-Methyl-2-pentyl-4(1H)-quinolinone],6.2,–
CC(C)=CCC[C@](C)(O[C@@H]1O[C@H](CO)[C@@H](O)[C@H](O)[C@H]1O)[C@H]1CC[C@]2(C)[C@@H]1[C@H](O)C[C@@H]1[C@@]3(C)CC[C@H](O)C(C)(C)[C@@H]3[C@@H](O[C@@H]3O[C@H](CO)[C@@H](O)[C@H](O)[C@H]3O)C[C@]12C [Ginsenoside Rg1],48.2,–
Nc1ncnc2c1ncn2[C@@H]1O[C@H](COP(=O)(O)OP(=O)(O)O)[C@@H](O)[C@H]1O [Adenosine 5'-diphosphate],9,–
O=c1cc(-c2ccccc2)oc2cc(O)cc(O)c12 [Chrysin],0,–
O=C1C[C@@H](c2ccccc2)Oc2cc(O[C@@H]3O[C@H](CO)[C@@H](O)[C@H](O)[C@H]3O)cc(O)c21 [Pinocembrin-7-O-β-D-glucopyranoside],19.6,–
CO[C@@H]1C=C2[C@@H]3CC(C)(C)CC[C@]3(CO)[C@H](O)C[C@@]2(C)[C@]2(C)CC[C@H]3[C@](C)(CO)[C@@H](O[C@@H]4O[C@H](C)[C@H](O)[C@H](O[C@@H]5O[C@H](CO)[C@@H](O)[C@H](O)[C@H]5O)[C@H]4O)CC[C@]3(C)[C@@H]12 [Saikosaponin B4],21.6,–
COc1cc2c(c(OC)c1OC)-c1c(cc(OC)c(OC)c1OC)C[C@H](C)[C@H](C)C2 [Schisandrin A],35.1,–
C=C1C(=O)[C@@]23[C@H](O)C[C@@H]4C(C)(C)C(=O)CC[C@@]4(C)[C@@H]2CC[C@@H]1[C@H]3O [Glaucocalyxin A],16.7,–
Cc1c(O)cc2c(c1O)C(=O)c1ccccc1C2=O [Rubiadin],38.1,–
COc1cc2oc(=O)cc(-c3ccccc3)c2cc1O [Dalbergin],14.9,–
N[C@@H](CS(=O)O)C(=O)O [L-Cysteinesulfinic acid],11,–
CC(C)[C@H](C)CC[C@@H](C)[C@H]1CC[C@H]2[C@@H]3CC=C4C[C@@H](O)CC[C@]4(C)[C@H]3CC[C@]12C [Campesterol],11.1,–

# Random excerpt: two compounds from above, in no set order.
Compound,229E Inhibition rate [%],"229E Inhibition rate (229E Inhibition rate, 24 h) [%]"
O=c1cc(-c2ccccc2)oc2cc(O)cc(O)c12 [Chrysin],0,–
C=C[C@@]1(C)CC(=O)[C@]2(O)[C@@]3(C)[C@@H](O)CCC(C)(C)[C@@H]3[C@H](O)[C@H](OC(C)=O)[C@@]2(C)O1 [Forskolin],5.3,–
